Laboratory results from patent publication US20070060550A1, “Methods of determining compounds useful in the treatment of bipolar disorder and methods of treating such disorders” (priority 2005, published 2007).
At least one structure is not confirmed: it was looked up by name or label, or the drawing left a doubt.

Tests used:
prolyl oligopeptidase = biological target: T1, prolyl oligopeptidase (Homo sapiens, UniProt P48147); assay: prolyl oligopeptidase fluorogenic enzyme assay (Z-Gly-Pro-aminomethyl coumarin); format: biochemical; settings: FIG. 9
T1 construct: poly-histidine; made in house; host or cells: E. coli
T1 sequence (P48147 1-710): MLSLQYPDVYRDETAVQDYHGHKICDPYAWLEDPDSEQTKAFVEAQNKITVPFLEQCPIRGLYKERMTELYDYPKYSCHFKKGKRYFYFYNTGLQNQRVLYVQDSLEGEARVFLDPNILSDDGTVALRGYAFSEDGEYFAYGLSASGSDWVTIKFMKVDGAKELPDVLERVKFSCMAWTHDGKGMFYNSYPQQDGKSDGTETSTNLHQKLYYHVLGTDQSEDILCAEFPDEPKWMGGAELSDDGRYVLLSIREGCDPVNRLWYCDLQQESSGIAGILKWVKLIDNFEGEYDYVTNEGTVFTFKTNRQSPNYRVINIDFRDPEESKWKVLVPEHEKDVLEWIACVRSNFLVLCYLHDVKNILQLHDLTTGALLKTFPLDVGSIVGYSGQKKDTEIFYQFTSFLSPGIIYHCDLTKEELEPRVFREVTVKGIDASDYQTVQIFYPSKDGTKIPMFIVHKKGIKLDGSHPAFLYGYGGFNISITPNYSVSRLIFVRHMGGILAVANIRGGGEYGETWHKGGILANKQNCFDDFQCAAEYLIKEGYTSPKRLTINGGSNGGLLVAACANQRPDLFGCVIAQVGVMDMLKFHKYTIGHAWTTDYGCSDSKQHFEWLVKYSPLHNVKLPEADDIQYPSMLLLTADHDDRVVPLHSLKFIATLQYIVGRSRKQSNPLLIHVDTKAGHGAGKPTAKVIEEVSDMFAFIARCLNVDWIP
From the text: For inhibitors of the enzymatic activity on the enzyme prolyl oligopeptidase, the relevant references for several assays can be found in Cheng et al., MCN 2005. Common assays use a peptide-based substrate which, when cleaved from a prorlyl bond, releases a fluorogenic signal that can be quantitated by spectrocopy.
Conveniently, the effect of the candidate compounds that inhibit enzyme activity can be assessed using a labeled substrate that is cleaved or otherwise modified by prolyl oligopeptidase to produce a detachable change such as release of a label. Thus, it is possible to screen candidate inhibitors by measuring the change in the signal from the label caused by the action of prolyl oligopeptidase in the presence and absence of a candidate inhibitor compound. A preferred substrate may be one in which a fluorescent label is employed, such as Z-Gly-Pro-aminomethyl coumarin.
Conveniently, prolyl oligopeptidase enzyme assays can be carried out using a standard fluorogenic assay with the synthetic substrate Z-Gly-Pro-aminomethyl coumarin obtained from Bachem, Switzerland. […]

[1] = system: sensory neuron growth cones; settings: Williams et al., 2002; cited from earlier work
cortical neurons = assay: 3H-CDP-DAG accumulation assay of PIns recycling in carbachol-stimulated neurons; format: cell-based; settings: FIG. 6b
From the text: PIns recycling that is limited by the supply of inositol can be assessed by loading cells with ^3H-cytidine, stimulating the cells with carbachol in the presence or absence of lithium, precipitating protein with trichloracetic acid, and then determining how much ^3H accumulates as ^3H-CDP-DAG in the lipid membrane compartment, which can be extracted with chloroform. […] Compounds specifically for this purpose may be designed by a number of computer programs suitable for this purpose.
A suitable screen therefore will determine compounds that can reverse the effect of lithium as measured by the accumulation of CDP-DAG in carbachol-stimulated neurons. Another means of screening for drugs that reverse the effect of lithium on PIns recycling is to screen for drugs that alter the supply of intracellular inositol in neurons by labelling them with titriated inositol and analysing the patterns of cytosolic inositol phosphates and membrane phoshoinositides: the novelty of this approach is to use cortical neurons rather than non-neural cells or neural cell lines. […] Additional known tricyclics such as protriptyline that could also be tested. […] The same assays can be used to test for other compounds that stimulate PIns cycling including other inhibitors of prolyl oligopeptidase activity. […]

HMIT = settings: cited from earlier work
SMITs = settings: 50 μM; Higgins and Kane, 2003; cited from earlier work

SMILES | effect on prolyl oligopeptidase proteolytic activity (prolyl oligopeptidase) | effect on collapse of sensory neuron growth cones and growth cone area [1] | influence on the inositol effect on lithium-induced accumulation of CDP-DAG (cortical neurons; 50 μM added, cortical neurons stimulated with carbachol) | effect on accumulation of 3H-CDP-DAG in cortical neurons treated with lithium (cortical neurons; 50 μM) | inhibition of HMIT (HMIT; 5 mM, Uldry et al., 2001) | strength of HMIT inhibition (HMIT; compared with SMIT) | inhibition of SMITs (SMITs)
[Li] [lithium] | Only valproic acid inhibited the enzyme | inhibit the collapse of sensory neuron growth cones and increase growth cone area | – | – | – | – | –
O=C(CCc1ccc(O)cc1)c1c(O)cc(O)cc1O[C@@H]1O[C@H](CO)[C@@H](O)[C@H](O)[C@H]1O [phloridzin] | – | – | not affected | did not affect | do inhibit HMIT | weak inhibitors of HMIT | inhibit SMITs
